In the supplement of paper PMC11264405:

What was measured:
Experiment in all cases: minimum inhibitory concentration
[1] = compound: CC(=O)NC[C@H]1CN(c2ccc(N3CCOCC3)c(F)c2)C(=O)O1 [linezolid]
[2] = compound: CCC[C@@H]1C[C@@H](C(=O)N[C@@H]([C@H]2O[C@H](SC)[C@H](O)[C@@H](O)[C@H]2O)[C@H](C)Cl)N(C)C1 [clindamycin]
[3] = compound: CCc1c(Cl)c(O)c(Cl)c(O)c1C(=O)O[C@H]1[C@H](O)[C@H](OC)[C@H](OC/C2=C\C=C\C[C@H](O)/C(C)=C/[C@H](CC)[C@@H](O[C@@H]3OC(C)(C)[C@@H](OC(=O)C(C)C)[C@H](O)[C@@H]3O)/C(C)=C/C(C)=C/C[C@@H]([C@@H](C)O)OC2=O)O[C@@H]1C [fidaxomicin]
[4] = compound: CN(C)c1cc(NC(=O)CNC(C)(C)C)c(O)c2c1C[C@H]1C[C@H]3[C@H](N(C)C)C(O)=C(C(N)=O)C(=O)[C@@]3(O)C(O)=C1C2=O [tigecycline]
[5] = compound: CN[C@H](CC(C)C)C(=O)N[C@H]1C(=O)N[C@@H](CC(N)=O)C(=O)N[C@H]2C(=O)N[C@H]3C(=O)N[C@H](C(=O)N[C@H](C(=O)O)c4cc(O)cc(O)c4-c4cc3ccc4O)[C@H](O)c3ccc(c(Cl)c3)Oc3cc2cc(c3O[C@@H]2O[C@H](CO)[C@@H](O)[C@H](O)[C@H]2O[C@H]2C[C@](C)(N)[C@H](O)[C@H](C)O2)Oc2ccc(cc2Cl)[C@H]1O [vancomycin]
[6] = compound: CO[C@H]1/C=C/O[C@@]2(C)Oc3c(C)c(O)c4c(O)c(c(/C=N/N5CCN(C)CC5)c(O)c4c3C2=O)NC(=O)/C(C)=C\C=C\[C@H](C)[C@H](O)[C@@H](C)[C@@H](O)[C@@H](C)[C@H](OC(C)=O)[C@@H]1C [rifampicin]
[7] = compound: C[C@@H](O)[C@H]1C(=O)N2C(C(=O)O)=C(SCCNC=N)C[C@H]12 [imipenem]
[8] = compound: C[C@@H](O)[C@H]1C(=O)N2C(C(=O)O)=C(S[C@@H]3CN[C@H](C(=O)N(C)C)C3)[C@H](C)[C@H]12 [meropenem]
[9] = compound: Cc1ncc([N+](=O)[O-])n1CCO [metronidazole]

Test System	minimum inhibitory concentration [1]	minimum inhibitory concentration [2]	minimum inhibitory concentration [3]	minimum inhibitory concentration [4]	minimum inhibitory concentration [5]	minimum inhibitory concentration [6]	minimum inhibitory concentration [7]	minimum inhibitory concentration [8]	minimum inhibitory concentration [9]
Clostridioides difficile PCR ribotype 010 isolate #50 (European region: West, country: France, isolate source: Human, ribotype: 010)	0.5 µg/mL	> 128 µg/mL	0.125 µg/mL	< 0.03 µg/mL	0.5 µg/mL	< 0.001 µg/mL	1 µg/mL	4 µg/mL	8 µg/mL
Clostridioides difficile PCR ribotype 010 isolate #51 (European region: West, country: France, isolate source: Human, ribotype: 010)	2 µg/mL	> 128 µg/mL	0.03 µg/mL	< 0.03 µg/mL	0.5 µg/mL	< 0.001 µg/mL	1 µg/mL	4 µg/mL	2 µg/mL
Clostridioides difficile PCR ribotype 010 isolate #52 (European region: West, country: France, isolate source: Human, ribotype: 010)	2 µg/mL	16 µg/mL	0.25 µg/mL	< 0.03 µg/mL	0.5 µg/mL	< 0.001 µg/mL	1 µg/mL	4 µg/mL	0.25 µg/mL
Clostridioides difficile PCR ribotype 010 isolate #55 (European region: South, country: Spain, isolate source: Human, ribotype: 010)	2 µg/mL	> 128 µg/mL	0.06 µg/mL	< 0.03 µg/mL	0.5 µg/mL	< 0.001 µg/mL	2 µg/mL	4 µg/mL	8 µg/mL
Clostridioides difficile PCR ribotype 010 isolate #56 (European region: West, country: Belgium, isolate source: Human, ribotype: 010)	8 µg/mL	> 128 µg/mL	0.03 µg/mL	0.06 µg/mL	0.5 µg/mL	< 0.001 µg/mL	2 µg/mL	2 µg/mL	< 0.125 µg/mL
Clostridioides difficile PCR ribotype 010 isolate #296 (European region: South, country: Spain, isolate source: Animal, ribotype: 010)	0.5 µg/mL	< 0.125 µg/mL	0.03 µg/mL	0.06 µg/mL	0.5 µg/mL	< 0.001 µg/mL	2 µg/mL	4 µg/mL	2 µg/mL
Clostridioides difficile PCR ribotype 011 isolate #57 (European region: East, country: Poland, isolate source: Human, ribotype: 011)	2 µg/mL	16 µg/mL	0.008 µg/mL	< 0.03 µg/mL	0.5 µg/mL	< 0.001 µg/mL	2 µg/mL	2 µg/mL	0.25 µg/mL
Clostridioides difficile PCR ribotype 012 isolate #58 (European region: East, country: Poland, isolate source: Human, ribotype: 012)	2 µg/mL	> 128 µg/mL	0.015 µg/mL	< 0.03 µg/mL	0.5 µg/mL	< 0.001 µg/mL	2 µg/mL	2 µg/mL	0.25 µg/mL
Clostridioides difficile PCR ribotype 012 isolate #59 (European region: North, country: UK, isolate source: Human, ribotype: 012)	8 µg/mL	> 128 µg/mL	0.06 µg/mL	0.06 µg/mL	1 µg/mL	> 32 µg/mL	2 µg/mL	4 µg/mL	0.25 µg/mL
Clostridioides difficile PCR ribotype 012 isolate #60 (European region: East, country: Romania, isolate source: Human, ribotype: 012)	2 µg/mL	8 µg/mL	0.015 µg/mL	0.25 µg/mL	1 µg/mL	> 32 µg/mL	4 µg/mL	8 µg/mL	< 0.125 µg/mL
Clostridioides difficile PCR ribotype 012 isolate #61 (European region: South, country: Spain, isolate source: Human, ribotype: 012)	2 µg/mL	> 128 µg/mL	0.03 µg/mL	< 0.03 µg/mL	0.5 µg/mL	0.002 µg/mL	4 µg/mL	4 µg/mL	< 0.125 µg/mL
Clostridioides difficile PCR ribotype 013 isolate #62 (European region: North, country: UK, isolate source: Human, ribotype: 013)	1 µg/mL	0.5 µg/mL	0.004 µg/mL	< 0.03 µg/mL	1 µg/mL	< 0.001 µg/mL	4 µg/mL	4 µg/mL	< 0.125 µg/mL
Clostridioides difficile PCR ribotype 013 isolate #63 (European region: North, country: UK, isolate source: Human, ribotype: 013)	2 µg/mL	16 µg/mL	0.004 µg/mL	< 0.03 µg/mL	1 µg/mL	< 0.001 µg/mL	2 µg/mL	2 µg/mL	< 0.125 µg/mL

Quoted from the listing:
minimum inhibitory concentration [5] with Clostridioides difficile PCR ribotype 010 isolate #50 (European region: West, country: France, isolate source: Human, ribotype: 010) reads 0.5 µg/mL
minimum inhibitory concentration [6] with Clostridioides difficile PCR ribotype 010 isolate #52 (European region: West, country: France, isolate source: Human, ribotype: 010) reads < 0.001 µg/mL
